Source: PMC7862700
This is a selection; strong and weak results do not stand in their true shares. At the low end of the ranking the order means little.

These sequences were tested against T1, ERF (UniProt P50548) (assay: DAPPL (digital affinity profiling via proximity ligation, sequencing)). Conditions: 10 mM Tris-HCl pH 7.5, 50 mM NaCl, 1 mM DTT, 4% glycerol, room temperature, 30 min; GST-TFs on glutathione beads, 16-mer random dsDNA library, 0.1% …; high values mean tight binding; double strand, one strand shown; scale: fold enrichment (6-mer frequency, TF over GST control).
T1 sequence: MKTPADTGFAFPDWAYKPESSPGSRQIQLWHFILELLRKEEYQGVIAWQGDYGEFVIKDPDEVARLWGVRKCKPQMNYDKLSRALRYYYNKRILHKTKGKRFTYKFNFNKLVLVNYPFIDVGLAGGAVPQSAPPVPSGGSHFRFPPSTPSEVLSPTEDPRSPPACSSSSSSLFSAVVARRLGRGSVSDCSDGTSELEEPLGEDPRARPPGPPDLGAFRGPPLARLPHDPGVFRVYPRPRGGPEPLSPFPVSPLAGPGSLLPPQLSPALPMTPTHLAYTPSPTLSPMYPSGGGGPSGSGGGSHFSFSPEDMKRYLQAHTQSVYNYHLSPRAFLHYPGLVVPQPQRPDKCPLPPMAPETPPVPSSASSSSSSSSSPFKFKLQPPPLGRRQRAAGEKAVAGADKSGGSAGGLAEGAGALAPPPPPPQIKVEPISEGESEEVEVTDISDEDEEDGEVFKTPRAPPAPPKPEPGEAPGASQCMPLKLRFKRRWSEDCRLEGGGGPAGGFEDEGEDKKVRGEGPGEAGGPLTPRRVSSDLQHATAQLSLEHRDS

| Sequence | binding signal |
| --- | --- |
| ATCTCT | 1.38 |
| TTCAGT | 1.09 |
| AAAAGT | 0.989 |
| GGCCCC | 0.994 |
| AATAGC | 1.25 |
| GCTGAT | 1.07 |
| TGTAAT | 1.14 |
| ATGTAA | 1.18 |
| TTGCAT | 1.37 |
| ACATTG | 1.26 |
